Source: PMC12684390

The chains behind the UniProt entries cited, without tags or fusion partners.
UniProt Q5TF58: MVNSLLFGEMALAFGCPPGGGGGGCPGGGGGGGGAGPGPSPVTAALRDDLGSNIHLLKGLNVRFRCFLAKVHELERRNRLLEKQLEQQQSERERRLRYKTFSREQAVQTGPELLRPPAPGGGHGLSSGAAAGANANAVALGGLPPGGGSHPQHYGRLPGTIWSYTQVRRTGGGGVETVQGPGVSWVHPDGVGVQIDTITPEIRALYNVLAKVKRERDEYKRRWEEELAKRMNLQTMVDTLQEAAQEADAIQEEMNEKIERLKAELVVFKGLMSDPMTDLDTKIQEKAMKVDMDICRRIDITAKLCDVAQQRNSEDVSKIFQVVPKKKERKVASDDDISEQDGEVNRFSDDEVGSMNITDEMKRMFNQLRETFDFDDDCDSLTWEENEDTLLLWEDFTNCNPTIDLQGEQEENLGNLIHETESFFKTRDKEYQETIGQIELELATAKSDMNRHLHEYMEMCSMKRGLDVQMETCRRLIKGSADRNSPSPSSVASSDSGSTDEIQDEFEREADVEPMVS
UniProt Q13426: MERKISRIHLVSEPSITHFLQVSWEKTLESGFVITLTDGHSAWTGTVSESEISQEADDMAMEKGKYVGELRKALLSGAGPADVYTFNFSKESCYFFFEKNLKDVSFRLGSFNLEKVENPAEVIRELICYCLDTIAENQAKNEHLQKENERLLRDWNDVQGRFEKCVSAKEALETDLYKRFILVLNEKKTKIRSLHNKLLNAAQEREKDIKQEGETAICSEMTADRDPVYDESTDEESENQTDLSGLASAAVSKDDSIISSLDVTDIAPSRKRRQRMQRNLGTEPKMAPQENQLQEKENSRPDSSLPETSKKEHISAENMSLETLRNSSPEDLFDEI
UniProt Q0D2I5: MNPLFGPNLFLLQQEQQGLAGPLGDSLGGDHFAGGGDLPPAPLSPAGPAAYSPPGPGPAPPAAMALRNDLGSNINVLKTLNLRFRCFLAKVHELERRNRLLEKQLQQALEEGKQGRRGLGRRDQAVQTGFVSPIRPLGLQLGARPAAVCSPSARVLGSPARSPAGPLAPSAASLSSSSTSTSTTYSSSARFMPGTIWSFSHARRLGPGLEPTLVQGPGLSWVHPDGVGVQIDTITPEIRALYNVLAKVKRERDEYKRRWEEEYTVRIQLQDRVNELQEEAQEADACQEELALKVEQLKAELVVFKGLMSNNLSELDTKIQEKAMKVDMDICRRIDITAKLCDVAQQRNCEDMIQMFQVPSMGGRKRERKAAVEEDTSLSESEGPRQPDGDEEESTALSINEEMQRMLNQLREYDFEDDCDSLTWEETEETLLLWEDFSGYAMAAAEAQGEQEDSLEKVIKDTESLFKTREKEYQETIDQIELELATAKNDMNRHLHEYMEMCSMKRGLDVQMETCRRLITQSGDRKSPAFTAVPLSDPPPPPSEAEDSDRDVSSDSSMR
UniProt Q9H9Q4: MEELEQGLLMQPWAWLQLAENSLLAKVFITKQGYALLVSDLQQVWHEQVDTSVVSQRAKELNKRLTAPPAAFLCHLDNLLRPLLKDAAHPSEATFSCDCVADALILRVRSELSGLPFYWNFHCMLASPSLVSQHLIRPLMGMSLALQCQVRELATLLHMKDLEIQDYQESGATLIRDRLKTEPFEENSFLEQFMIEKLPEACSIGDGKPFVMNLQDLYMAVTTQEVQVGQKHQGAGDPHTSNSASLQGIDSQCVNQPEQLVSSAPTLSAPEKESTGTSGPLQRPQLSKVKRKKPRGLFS

What was measured:
[1] = molecular target: FLAG-IFFO2 (full-length IFFO2) (UniProt Q5TF58); assay: affinity purification with mass spectrometry + co-IP; FLAG-IFFO2 IP on anti-FLAG M2 gel, eluate read by MS (Fig. 1E) and by western blot (Fig. 1F)
[2] = molecular target: FLAG-XRCC4 (human (cDNA from hORFemone v.8.1)) (UniProt Q13426); assay: affinity purification with mass spectrometry; FLAG-XRCC4 expressed in suspension 293 cells, IP on anti-FLAG M2 gel, elution with 3x Flag peptide, MS (Fig. 1A, B); lysis buffer 25 mM Tris-HCl pH 7.5, 150 mM NaCl, 0.5% NP-40, benzonase

Substance | binding [1] | binding [2]
IFFO1 (endogenous) (from UniProt Q0D2I5 1-559) | binds | binds
IFFO2 (endogenous) (from UniProt Q5TF58 1-517) |  | binds
XLF (endogenous) (from UniProt Q9H9Q4 1-299) | no binding | 
XRCC4 (endogenous) (from UniProt Q13426 1-336) | binds | 

No constants are given. Whether binding was seen depends on the method and setting. In cells and extracts the contact can be indirect. A yes stands for co-enrichment or nearness to the bait. Other partners may have been found. For some assays here: A no says only that the protein was not detected with the bait.
